Measured values published in paper PMC10612308.
These are yes or no findings as the source states them, for the method shown. Binding seen in cells or lysates may run through a third protein. These calls come from enrichment with a bait or labelling near it, and not all partners need be listed.

Protein sequences, listed by entry. Tags and fused reporters are not part of them.
UniProt Q9BVK8: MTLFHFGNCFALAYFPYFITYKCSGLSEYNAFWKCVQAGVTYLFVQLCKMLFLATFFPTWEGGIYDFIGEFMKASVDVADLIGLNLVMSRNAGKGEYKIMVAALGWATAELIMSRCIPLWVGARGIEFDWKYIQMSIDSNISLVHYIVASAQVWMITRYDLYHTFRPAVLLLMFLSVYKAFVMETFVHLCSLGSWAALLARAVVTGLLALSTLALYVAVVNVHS
UniProt P52630: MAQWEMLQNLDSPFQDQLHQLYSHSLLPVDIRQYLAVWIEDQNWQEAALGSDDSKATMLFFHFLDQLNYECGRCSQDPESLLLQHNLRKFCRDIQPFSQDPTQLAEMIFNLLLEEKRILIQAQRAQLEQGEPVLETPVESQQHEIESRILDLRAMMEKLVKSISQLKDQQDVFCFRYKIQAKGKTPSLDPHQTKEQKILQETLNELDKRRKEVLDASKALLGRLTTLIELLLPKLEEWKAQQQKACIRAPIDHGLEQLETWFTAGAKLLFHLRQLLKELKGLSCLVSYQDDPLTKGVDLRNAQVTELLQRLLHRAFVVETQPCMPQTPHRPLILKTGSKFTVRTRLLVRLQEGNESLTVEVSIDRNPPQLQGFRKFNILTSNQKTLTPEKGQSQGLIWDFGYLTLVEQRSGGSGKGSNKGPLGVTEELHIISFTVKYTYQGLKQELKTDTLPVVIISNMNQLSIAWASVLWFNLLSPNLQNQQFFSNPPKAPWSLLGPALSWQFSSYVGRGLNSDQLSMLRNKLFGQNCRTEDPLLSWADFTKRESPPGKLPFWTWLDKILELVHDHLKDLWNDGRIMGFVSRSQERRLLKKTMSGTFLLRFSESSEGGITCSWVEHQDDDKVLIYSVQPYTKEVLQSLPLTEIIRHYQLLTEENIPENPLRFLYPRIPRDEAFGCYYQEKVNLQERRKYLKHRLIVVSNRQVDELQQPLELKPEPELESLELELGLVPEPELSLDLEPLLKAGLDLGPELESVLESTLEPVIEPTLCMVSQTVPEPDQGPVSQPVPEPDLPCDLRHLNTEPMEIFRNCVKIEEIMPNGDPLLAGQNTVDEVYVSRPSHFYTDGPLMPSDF

Target: Flag-TMEM147 (transmembrane protein 147) (human) (UniProt Q9BVK8)
Assay: affinity purification with mass spectrometry; extracts of Huh7 and HepG2 cells incubated with anti-Flag-TMEM147 or IgG, protein A/G agarose beads; bands specific for Flag-TMEM147 excised from the gel, MALDI-TOF-MS

With “signal transducer and activator of transcription 2 (STAT2) (from UniProt P52630 1-851)” the binding was “binds”.
